Counter-ions that a name gives are not always drawn.
Experiments:
[1] = system: mouse PCLS; experiment: LC–MS/MS quantification of intracellular BAs in mouse PCLS; assay type: cell-based; conditions: 48 h
Protocol: In short, freshly prepared PCLS were transferred to 12-well plates (Greiner bio-one GmbH, Austria), one slice per well. […] The composition of the human-like BA mixture was based on serum concentrations in mice and humans, measured by […]. […] A Shimadzu Nexera X2 HPLC system with binary pumps was interfaced to a Thermo Scientific TSQ Quantum ultra-triple quadrupole mass spectrometer. The BA analysis was performed by liquid chromatography-tandem mass spectrometry (LC-MS/MS). Xcalibur software version 2.0.7 by Thermo Scientific was applied in the data processing. […] Phenomenex, Utrecht, the Netherlands) reversed-phase column was used to separate the BAs. The column and autosampler temperatures were set at 55 °C and 4 °C, respectively. The injection volume was 15 μL, and the flow was set at 0.3 mL/min. […] Intracellular BA concentrations in PCLS were measured by LC-MS/MS. Sample preparation for these measurements of intracellular BAs was performed as follows. […] Hereafter, three slices for each condition were pooled in a 1.5-mL test tube, snap-frozen in liquid nitrogen and stored at -80 °C until analysis. […] Samples were subsequently centrifuged for 15 min at 15 °C and 13,000 rpm. The supernatant was collected in a new tube, and the samples were concentrated using a Concentrator plus centrifuge (Eppendorf, Germany). […] The concentrations of CA, CDCA, DCA, LCA, UDCA, HDCA, […] and GCA were determined with MRM-based LC-MS as described above.

[2] = system: mouse PCLS; experiment: Viability of mouse PCLS by ATP content (ATP bioluminescence, normalized to protein); assay type: cell-based
Protocol: In short, freshly prepared PCLS were transferred to 12-well plates (Greiner bio-one GmbH, Austria), one slice per well. Each well was filled with 1.3 mL pre-heated (37 ℃) and oxygenated (80%) Williams Medium E (1X, glutaMAX-1), which had been supplemented with 25 mM D-glucose monohydrate and 50 μg/ml Gentamicin (denoted as WME GG). […] The DMSO concentration used was below 0.5% in the incubation medium, equivalent to DMSO concentrations in solutions prepared by dilution of BA stock solutions with WME GG.
ATP was extracted by homogenization, followed by the centrifugation of the homogenate (16,000g at 4 °C for 5 min). The supernatant was collected, and the pellet was left to dry. An ATP Bioluminescence Assay Kit (Roche Diagnostics, Mannheim, Germany) was used to determine ATP content in the supernatant. The dried pellet was used to determine the total protein content of the PCLS using the Bio-Rad DC Protein Assay (Bio-Rad, Munich, Germany). The obtained ATP values were then normalized for the total protein content of the slice.
A minimum of three mouse livers was used for each experiment, using PCLS in triplicate from each liver. GraphPad Prism 8.4.3 was used to perform statistical analysis, using a Student’s unpaired two-tailed T-test to compare two means, or a one-way ANOVA to compare multiple means. One-way ANOVA was followed by either Tukey’s multiple comparisons test to compare all means within a dataset, or Dunnett’s multiple comparisons test to compare all means with their own control mean. Nonlinear regression analysis was followed by an extra sum of squares F-test to compare two fits. mRNA expression levels are shown as Log2(fold induction) (− ΔΔCt), though the data was statistically analyzed using the cycle threshold (ΔCt) values. Differences between groups were considered significant when p < 0.05.

[3] = with humanized BA mixture, CPZ 15 µM, CSA 1 µM, GB 25 µM
[4] = with humanized BA mixture, CPZ 30 µM, CSA 6 µM, GB 65 µM
[5] = without BA mixture, CPZ 15 µM, CSA 1 µM, GB 25 µM
[6] = without BA mixture, CPZ 30 µM, CSA 6 µM, GB 65 µM

SMILES: CN(C)CCCN1c2ccccc2Sc2ccc(Cl)cc21 [CPZ, Chlorpromazine hydrochloride]
- CA, percent of total measured BA [1, 3]: 36.0%
- CDCA, percent of total measured BA [1, 3]: 2.9%
- DCA, percent of total measured BA [1, 3]: 12.1%
- GCA, percent of total measured BA [1, 3]: 4.8%
- HDCA, percent of total measured BA [1, 3]: 0.6%
- LCA, percent of total measured BA [1, 3]: 0.5%
- TCA, percent of total measured BA [1, 3]: 33.8%
- TCDCA, percent of total measured BA [1, 3]: 1.4%
- TDCA, percent of total measured BA [1, 3]: 2.0%
- THDCA, percent of total measured BA [1, 3]: 1.3%
- UDCA, percent of total measured BA [1, 3]: 4.7%
- CA, percentage of the total amount of BA [1, 4]: 26.7%
- CDCA, percentage of the total amount of BA [1, 4]: 3.55%
- DCA, percentage of the total amount of BA [1, 4]: 25.3%
- GCA, percentage of the total amount of BA [1, 4]: 2.2%
- HDCA, percentage of the total amount of BA [1, 4]: 1.2%
- LCA, percentage of the total amount of BA [1, 4]: 1.3%
- TCA, percentage of the total amount of BA [1, 4]: 29.8%
- TCDCA, percentage of the total amount of BA [1, 4]: 1.5%
- TDCA, percentage of the total amount of BA [1, 4]: 3.8%
- THDCA, percentage of the total amount of BA [1, 4]: 0.8%
- UDCA, percentage of the total amount of BA [1, 4]: 3.9%
- CA, percent of total measured BA [1, 5]: 1.8%
- CDCA, percent of total measured BA [1, 5]: 1.1%
- DCA, percent of total measured BA [1, 5]: 0.4%
- GCA, percent of total measured BA [1, 5]: 0.0%
- HDCA, percent of total measured BA [1, 5]: 0.0%
- LCA, percent of total measured BA [1, 5]: 1.2%
- TCA, percent of total measured BA [1, 5]: 4.5%
- TCDCA, percent of total measured BA [1, 5]: 77.4%
- TDCA, percent of total measured BA [1, 5]: 0.7%
- THDCA, percent of total measured BA [1, 5]: 12.8%
- UDCA, percent of total measured BA [1, 5]: 0.0%
- CA, percent of total measured BA [1, 6]: 1.1%
- CDCA, percent of total measured BA [1, 6]: 1.1%
- DCA, percent of total measured BA [1, 6]: 0.4%
- GCA, percent of total measured BA [1, 6]: 0.0%
- HDCA, percent of total measured BA [1, 6]: 0.0%
- LCA, percent of total measured BA [1, 6]: 1.1%
- TCA, percent of total measured BA [1, 6]: 3.6%
- TCDCA, percent of total measured BA [1, 6]: 76.5%
- TDCA, percent of total measured BA [1, 6]: 0.2%
- THDCA, percent of total measured BA [1, 6]: 16.0%
- UDCA, percent of total measured BA [1, 6]: 0.0%
- HS (hillslope of concentration-response curve) ([2]; w/o BA, fit with IC different with and w/o BA): -4.6
- HS (hillslope of concentration-response curve) ([2]; with BA, fit with IC different with and w/o BA): -4.6

SMILES: COc1ccc(Cl)cc1C(=O)NCCc1ccc(S(=O)(=O)NC(=O)NC2CCCCC2)cc1 [GB, Glibenclamide]
- CA, percent of total measured BA [1, 3]: 30.5%
- CDCA, percent of total measured BA [1, 3]: 4.3%
- DCA, percent of total measured BA [1, 3]: 14.9%
- GCA, percent of total measured BA [1, 3]: 4.0%
- HDCA, percent of total measured BA [1, 3]: 2.8%
- LCA, percent of total measured BA [1, 3]: 0.2%
- TCA, percent of total measured BA [1, 3]: 30.6%
- TCDCA, percent of total measured BA [1, 3]: 2.3%
- TDCA, percent of total measured BA [1, 3]: 2.2%
- THDCA, percent of total measured BA [1, 3]: 2.4%
- UDCA, percent of total measured BA [1, 3]: 5.6%
- CA, percentage of the total amount of BA [1, 4]: 25.9%
- CDCA, percentage of the total amount of BA [1, 4]: 2.9%
- DCA, percentage of the total amount of BA [1, 4]: 23.7%
- GCA, percentage of the total amount of BA [1, 4]: 4.4%
- HDCA, percentage of the total amount of BA [1, 4]: 5.0%
- LCA, percentage of the total amount of BA [1, 4]: 0.2%
- TCA, percentage of the total amount of BA [1, 4]: 26.4%
- TCDCA, percentage of the total amount of BA [1, 4]: 1.7%
- TDCA, percentage of the total amount of BA [1, 4]: 2.9%
- THDCA, percentage of the total amount of BA [1, 4]: 2.2%
- UDCA, percentage of the total amount of BA [1, 4]: 4.8%
- CA, percent of total measured BA [1, 5]: 8.2%
- CDCA, percent of total measured BA [1, 5]: 3.7%
- DCA, percent of total measured BA [1, 5]: 9.4%
- GCA, percent of total measured BA [1, 5]: 0.0%
- HDCA, percent of total measured BA [1, 5]: 0.0%
- LCA, percent of total measured BA [1, 5]: 2.4%
- TCA, percent of total measured BA [1, 5]: 10.5%
- TCDCA, percent of total measured BA [1, 5]: 36.6%
- TDCA, percent of total measured BA [1, 5]: 0.4%
- THDCA, percent of total measured BA [1, 5]: 28.8%
- UDCA, percent of total measured BA [1, 5]: 0.0%
- CA, percent of total measured BA [1, 6]: 13.1%
- CDCA, percent of total measured BA [1, 6]: 10.1%
- DCA, percent of total measured BA [1, 6]: 3.4%
- GCA, percent of total measured BA [1, 6]: 0.0%
- HDCA, percent of total measured BA [1, 6]: 0.9%
- LCA, percent of total measured BA [1, 6]: 5.5%
- TCA, percent of total measured BA [1, 6]: 6.3%
- TCDCA, percent of total measured BA [1, 6]: 48.5%
- TDCA, percent of total measured BA [1, 6]: 0.2%
- THDCA, percent of total measured BA [1, 6]: 11.8%
- UDCA, percent of total measured BA [1, 6]: 0.0%
- HS (hillslope of concentration-response curve) ([2]; Table S3, one fit, the same with and w/o BA): -4.8

— paper PMC9325861, “Mouse precision-cut liver slices as an ex vivo model to study drug-induced cholestasis” (Archives of Toxicology, 2022)
